Literature values, collected in patent US20100267728A1, “3-SUBSTITUTED-1,2,3-TRIAZIN-4-ONE'S AND 3 SUBSTITUTED 1,3-PYRIMIDINONE'S FOR ENHANCING GLU[…] RESPONSES” (CORTEX PHARMACEUTICALS, INC., priority 2007, published 2010).
At least one compound was matched to its structure with a doubt left.

Test system: AMPA receptor
Details: works only at high concentrations; cited from earlier work

COc1ccc(C(=O)N2CCCC2=O)cc1 [aniracetam, N-anisoyl-2-pyrrolidinone]
concentration at which the drug works: approx. 1000 μM
